Results from paper PMC7498314, “Microcephaly family protein MCPH1 stabilizes RAD51 filaments” (Nucleic Acids Research, 2020).
No constants are given. Whether binding was seen depends on the method and setting. Where a sequence is shown, tags or fusion partners need not be part of it.

Chains of the proteins cited; added tags and fusions are not shown.
UniProt P0A7G6: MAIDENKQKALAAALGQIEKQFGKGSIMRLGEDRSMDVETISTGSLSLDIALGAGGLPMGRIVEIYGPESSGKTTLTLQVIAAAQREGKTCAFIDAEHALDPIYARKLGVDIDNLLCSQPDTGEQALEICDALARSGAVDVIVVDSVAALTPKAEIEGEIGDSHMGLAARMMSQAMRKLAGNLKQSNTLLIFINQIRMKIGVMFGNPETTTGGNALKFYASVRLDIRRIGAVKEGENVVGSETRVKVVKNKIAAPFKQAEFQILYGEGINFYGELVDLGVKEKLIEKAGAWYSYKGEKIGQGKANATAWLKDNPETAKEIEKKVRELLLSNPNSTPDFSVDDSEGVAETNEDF

Target: T1, (His)6-MBP-tagged mouse MCPH1 (Microcephalin 1) (mouse) (UniProt Q7TT79)
T1 sequence: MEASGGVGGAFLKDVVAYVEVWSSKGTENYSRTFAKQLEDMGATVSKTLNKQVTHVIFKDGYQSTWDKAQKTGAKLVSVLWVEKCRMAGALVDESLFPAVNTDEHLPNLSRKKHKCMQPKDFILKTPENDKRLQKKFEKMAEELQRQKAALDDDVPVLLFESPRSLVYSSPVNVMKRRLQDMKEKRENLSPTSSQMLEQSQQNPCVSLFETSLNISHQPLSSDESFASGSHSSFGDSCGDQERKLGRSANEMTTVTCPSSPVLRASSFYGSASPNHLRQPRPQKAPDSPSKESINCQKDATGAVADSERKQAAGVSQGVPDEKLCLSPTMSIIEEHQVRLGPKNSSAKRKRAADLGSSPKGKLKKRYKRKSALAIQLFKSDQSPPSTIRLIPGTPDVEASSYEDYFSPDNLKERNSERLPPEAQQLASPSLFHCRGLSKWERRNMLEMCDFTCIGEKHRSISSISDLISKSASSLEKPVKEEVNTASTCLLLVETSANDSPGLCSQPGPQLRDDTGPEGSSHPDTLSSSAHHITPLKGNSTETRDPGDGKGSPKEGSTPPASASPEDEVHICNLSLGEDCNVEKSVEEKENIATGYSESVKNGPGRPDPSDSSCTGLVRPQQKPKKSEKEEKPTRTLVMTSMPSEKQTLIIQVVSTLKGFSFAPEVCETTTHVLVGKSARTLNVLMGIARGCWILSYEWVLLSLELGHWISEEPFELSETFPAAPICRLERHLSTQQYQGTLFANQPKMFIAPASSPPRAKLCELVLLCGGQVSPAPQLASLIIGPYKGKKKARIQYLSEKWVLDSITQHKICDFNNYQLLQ
Assay: condition: 1 μg RecA with 4 μg (His)6-MBP-MCPH1 in 30 μl; pull-down; (His)6-MBP-MCPH1 (4 μg) incubated with recombinase (1 μg) in 30 μl buffer D (25 mM Tris-HCl pH 7.5, 10% glycerol, 0.01% Igepal, 100 mM KCl, 10 mM imidazole) 30 min at 37°C with Benzonase and 2 mM MgCl2; captured on Talon resin via the (His)6 tag; SDS-PAGE with Coomassie Blue staining; both purified

binding: no binding
Substance: Escherichia coli RecA protein (from UniProt P0A7G6 1-353)
